One substance from article PMC10993617 can be followed below.

Chains of the proteins cited; added tags and fusions are not shown.
UniProt P10415: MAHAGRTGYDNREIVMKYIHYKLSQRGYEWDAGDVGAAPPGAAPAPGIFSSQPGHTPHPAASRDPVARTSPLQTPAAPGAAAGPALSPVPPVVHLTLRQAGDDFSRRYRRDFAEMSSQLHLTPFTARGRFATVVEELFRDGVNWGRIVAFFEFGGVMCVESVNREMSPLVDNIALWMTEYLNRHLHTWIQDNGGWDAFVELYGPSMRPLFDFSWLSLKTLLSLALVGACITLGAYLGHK
UniProt Q14457: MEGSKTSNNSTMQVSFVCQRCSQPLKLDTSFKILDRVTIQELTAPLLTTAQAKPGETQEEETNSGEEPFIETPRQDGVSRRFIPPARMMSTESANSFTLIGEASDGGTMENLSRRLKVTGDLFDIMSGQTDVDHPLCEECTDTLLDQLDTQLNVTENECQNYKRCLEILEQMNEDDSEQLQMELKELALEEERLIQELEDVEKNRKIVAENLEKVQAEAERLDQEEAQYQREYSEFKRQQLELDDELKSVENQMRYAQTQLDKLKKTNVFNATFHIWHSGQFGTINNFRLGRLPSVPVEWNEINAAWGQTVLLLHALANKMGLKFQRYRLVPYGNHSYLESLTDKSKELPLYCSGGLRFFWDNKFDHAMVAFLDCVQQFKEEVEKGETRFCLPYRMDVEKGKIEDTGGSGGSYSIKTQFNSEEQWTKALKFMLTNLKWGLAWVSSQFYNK

Results are given in words; binding and its absence hold for the method and conditions named. In cells and extracts the contact can be indirect. Some binding calls cover weakened binding; strength is not graded here.

This experiment addresses Bcl-2 (human (endogenous in primary endometrial stromal cells)) (UniProt P10415). Briefly: co-IP; lysates of ESCs (control or hCG-treated) in IP lysis buffer (25 mM Tris-HCl, 150 mM NaCl, 1 mM EDTA, 1% NP-40, 1% protease inhibitor); precipitated with anti-Bcl-2 antibody or control IgG for 1 h at 4 °C on Protein A/G PLUS-Agarose; western blot for Bcl-2 or Beclin1. For orientation: Immunoblotting shows a protein as a band on a membrane.

On to Beclin1 (from UniProt Q14457 1-450), for which the binding result is listed as “binds”.
